Experimental data as given in PMC5392987.

Molecular target: T1, Symplekin (endogenous) (Drosophila melanogaster (endogenous in Dmel-2 cells)) (UniProt Q8MSU4)
T1 sequence: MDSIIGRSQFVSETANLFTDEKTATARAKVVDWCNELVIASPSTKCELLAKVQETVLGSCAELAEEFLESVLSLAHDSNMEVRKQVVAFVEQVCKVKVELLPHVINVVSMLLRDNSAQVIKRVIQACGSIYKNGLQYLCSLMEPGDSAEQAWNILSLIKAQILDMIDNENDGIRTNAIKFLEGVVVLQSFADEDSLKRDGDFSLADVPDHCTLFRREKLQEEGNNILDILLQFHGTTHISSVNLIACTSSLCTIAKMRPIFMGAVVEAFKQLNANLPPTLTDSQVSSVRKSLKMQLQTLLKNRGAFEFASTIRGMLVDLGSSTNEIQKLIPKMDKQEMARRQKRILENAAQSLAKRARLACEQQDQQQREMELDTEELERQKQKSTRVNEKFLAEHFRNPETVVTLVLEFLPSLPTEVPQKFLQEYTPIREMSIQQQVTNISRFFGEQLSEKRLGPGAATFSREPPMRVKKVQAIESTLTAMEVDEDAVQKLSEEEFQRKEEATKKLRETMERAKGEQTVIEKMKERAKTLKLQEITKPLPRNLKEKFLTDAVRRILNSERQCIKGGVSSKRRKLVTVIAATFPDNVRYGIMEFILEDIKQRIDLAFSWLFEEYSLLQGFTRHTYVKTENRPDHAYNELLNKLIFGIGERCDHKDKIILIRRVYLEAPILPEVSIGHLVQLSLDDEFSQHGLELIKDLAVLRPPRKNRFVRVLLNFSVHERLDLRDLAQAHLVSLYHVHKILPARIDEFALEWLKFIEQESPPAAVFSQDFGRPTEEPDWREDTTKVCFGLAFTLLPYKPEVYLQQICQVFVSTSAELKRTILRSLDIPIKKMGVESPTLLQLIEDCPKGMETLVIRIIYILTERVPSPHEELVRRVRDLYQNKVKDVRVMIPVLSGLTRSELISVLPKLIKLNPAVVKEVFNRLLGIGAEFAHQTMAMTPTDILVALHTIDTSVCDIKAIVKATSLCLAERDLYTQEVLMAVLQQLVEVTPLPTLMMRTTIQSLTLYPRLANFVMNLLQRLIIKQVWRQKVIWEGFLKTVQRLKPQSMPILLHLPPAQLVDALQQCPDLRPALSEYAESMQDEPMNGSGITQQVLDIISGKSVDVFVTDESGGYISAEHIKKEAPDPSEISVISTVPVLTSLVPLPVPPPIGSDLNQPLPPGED
Assay: affinity purification with mass spectrometry; endogenous Symplekin immunoprecipitated from crude Drosophila culture cell nuclear extract; bands cut from a Coomassie-stained SDS-PAGE gel and identified by MS; anti-Myc as control

B1: CPSF160 (endogenous) (protein, UniProt Q9V726 1-1455)
chain: MFSMCKQTHSATAVEFSIACRFFNNLDENLVVAGANVLKVYRIAPNVEASQRQKLNPSEMRLAPKMRLECLATYTLYGNVMSLQCVSLAGAMRDALLISFKDAKLSVLQHDPDTFALKTLSLHYFEEDDIRGGWTGRYFVPTVRVDPDSRCAVMLVYGKRLVVLPFRKDNSLDEIELADVKPIKKAPTAMVSRTPIMASYLIALRDLDEKIDNVLDIQFLHGYYEPTLLILYEPVRTCPGRIKVRSDTCVLVAISLNIQQRVHPIIWTVNSLPFDCLQVYPIQKPIGGCLVMTVNAVIYLNQSVPPYGVSLNSSADNSTAFPLKPQDGVRISLDCANFAFIDVDKLVISLRTGDLYVLTLCVDSMRTVRNFHFHKAAASVLTSCICVLHSEYIFLGSRLGNSLLLHFTEEDQSTVITLDEVEQQSEQQQRNLQDEDQNLEEIFDVDQLEMAPTQAKSRRIEDEELEVYGSGAKASVLQLRKFIFEVCDSLMNVAPINYMCAGERVEFEEDGVTLRPHAESLQDLKIELVAATGHSKNGALSVFVNCINPQIITSFELDGCLDVWTVFDDATKKSSRNDQHDFMLLSQRNSTLVLQTGQEINEIENTGFTVNQPTIFVGNLGQQRFIVQVTTRHVRLLQGTRLIQNVPIDVGSPVVQVSIADPYVCLRVLNGQVITLALRETRGTPRLAINKHTISSSPAVVAISAYKDLSGLFTVKGDDINLTGSSNSAFGHSFGGYMKAEPNMKVEDEEDLLYGDAGSAFKMNSMADLAKQSKQKNSDWWRRLLVQAKPSYWLVVARQSGTLEIYSMPDMKLVYLVNDVGNGSMVLTDAMEFVPISLTTQENSKAGIVQACMPQHANSPLPLELSVIGLGLNGERPLLLVRTRVELLIYQVFRYPKGHLKIRFRKMDQLNLLDQQPTHIDLDENDEQEEIESYQMQPKYVQKLRPFANVGGLSGVMVCGVNPCFVFLTFRGELRIHRLLGNGDVRSFAAFNNVNIPNGFLYFDTTYELKISVLPSYLSYDSVWPVRKVPLRCTPRQLVYHRENRVYCLITQTEEPMTKYYRFNGEDKELSEESRGERFIYPIGSQFEMVLISPETWEIVPDASITFEPWEHVTAFKIVKLSYEGTRSGLKEYLCIGTNFNYSEDITSRGNIHIYDIIEVVPEPGKPMTKFKIKEIFKKEQKGPVSAISDVLGFLVTGLGQKIYIWQLRDGDLIGVAFIDTNIYVHQIITVKSLIFIADVYKSISLLRFQEEYRTLSLASRDFNPLEVYGIEFMVDNSNLGFLVTDAERNIIVYMYQPEARESLGGQKLLRKADYHLGQVVNTMFRVQCHQKGLHQRQPFLYENKHFVVYGTLDGALGYCLPLPEKVYRRFLMLQNVLLSYQEHLCGLNPKEYRTLKSSKKQGINPSRCIIDGDLIWSYRLMANSERNEVAKKIGTRTEEILGDLLEIERLASVF
**Q.** For B1, which binding is on record?
**A.** Its binding is “binds”.

B2: CPSF6 (CG7185) (endogenous) (protein, UniProt Q9VSH4 1-652)
chain: MADVVLDLYAEDLDKDFAGQAQDEFGGDGVDLYDDIGGPTESAASGGGGGGTPSADGAAGPGSGEPGERNSGGPNGVYHQSSGSLTPTMNRRYQLYVGNLTWWTTDQDIANSLRDIGVSDLQEVKFFENRANGQSKGFSVISLGSESSLRAVLDQLPKKEMHGQAPVVTYPSKQALTQFESLQKTRPVPPPQQNGPPRGPAPPSMGGGPMPTGHPGGPQGGGPPGHPPRGMNSIMQPGQYRPQHMSQVPQVGGPNSGPPRMQPPMHPQGGLMGNQQPPPRYPSAQGQWPGQRPGGPRPGPPNGPPQRPMFQGGPMGMPVRGPAGPDWRRPPMHGGFPPQGPPRGLPPAPGPGGPHGAPAPHVNPAFFNQPGGPAQHPGMGGPPHGAPGPQPGMNMPPQQGMNMTPQHGPPPQFAQHGPRGPWPPPQGKPPGPFPDPQQMGPQLTEVEFEEVMSRNRTVSSSAIARAVSDAAAGEYSSAIETLVTAISLIKQSKVAHDERCKILISSLQDTLHGIEAKSYNRRERSRSRERSHRSRQRRERSTSRYRERSRERERDRDRERERDGGSYRERSRSRERERQAPDHYRDDSRSVRPRKSPEPVVAEAAEAPSSKRYYEDRERYRSSDRERRDRDRDRDRERERDRDRREEHRSRH
**Q.** For B2, which binding is on record?
**A.** The binding was “binds”.

No constants are given. Whether binding was seen depends on the method and setting. Binding seen in cells or lysates may run through a third protein. A yes stands for co-enrichment or nearness to the bait. Other partners may have been found.
